Measurements taken from PubChem BioAssay AID2417 (National Center for Advancing Translational Sciences (NCATS), 2010).
The whole screen tested about 140,000 compounds, of which about 4,300 (3.1%) were called active. The inconclusive results got no clear call from the source; some entries with a clear call stand among them for comparison.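 Rule for the calls: active = readout at or below -70, meaning at least 70% loss of cells showing the perinucleolar compartment, a nuclear body marking cancer cells; inconclusive = readout between -30 and a set limit; inactive = the rest.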

Assay: High Content Assay for Compounds that inhibit the Assembly of the Perinucleolar Compartment;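 note: plate controls were DMSO wells for no effect and camptothecin positive control wells for full effect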
Details: PC3M PTB-GFP, PNC prevalence imaging, 16 h; at 10 µM; stronger effect = lower value
Summary of the method: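 Compounds are pinned in duplicate onto adhered PC3M cells stably expressing GFP-tagged PTB and incubated 16 h at 37 C. Cells are then fixed, nuclei stained with Hoechst, and PNC-positive cells counted.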

Row | Compound | activity change (PNC), negative = inhibition
1 | Cc1cnc(NC(=O)CSc2ccc(Cl)cc2)s1 | inconclusive: -47.6%
2 | COCCNC(=O)CSc1nc(-c2ccccc2)c(-c2ccccc2)o1 | inactive: 18.2%
3 | COCn1c(-c2ccccc2)nc2ccccc21 | inconclusive: -33.4%
4 | O=C1N=C(N2CCCC2)S/C1=C\c1ccccc1 | inactive: -9.62%
5 | CC1=C(C(=O)Nc2cccc(C)c2C)C(c2cccs2)NC(=S)N1 (configuration not stated) | inconclusive: -32.9%
6 | Cc1cc(=O)oc(C)c1C(=O)N1CCN(c2ccc(F)cc2)CC1 | inconclusive: -62.9%
7 | COCCNC(=O)c1cn(C)c(=O)c2cc(OC)c(OC)cc12 | inconclusive: -40.2%
8 | CCOC(=O)c1ccc2c(c1)n(CC)c(/C=C/N(C)c1ccccc1)[n+]2CC | inconclusive: -48.4%
9 | CCN(CC)c1ccc(CN(C(=O)c2cc(OC)c(OC)c(OC)c2)C2CCS(=O)(=O)C2)cc1 (configuration not stated) | inactive: -21%
10 | COc1cc(C(=S)N2CCOCC2)cc(OC)c1OC(=O)Cc1ccc(F)cc1 | inactive: -5.41%
11 | Cc1ccc(S(=O)(=O)NNC(=O)c2sc(=S)n(C)c2C)cc1 | inconclusive: -65.7%
12 | CN1CCN(C(=S)Nc2cccc(C(F)(F)F)c2)CC1 | inconclusive: -34.1%
13 | CCSc1nnc(CNC(=O)C23CC4CC(CC(C4)C2)C3)n1C1CCCCC1 | inactive: 37.2%
14 | CC(=O)Nc1cccc(NC(=O)C2CC3CCC2C3)c1 (configuration not stated) | inactive: -23.3%
15 | C=C(C)COc1ccc(-c2[nH]ncc2Oc2ccccc2OC)c(O)c1 | inconclusive: -47.9%
16 | CCCCc1ccc(NC(=S)N2CCCC(CO)C2)cc1 (configuration not stated) | inconclusive: -45.3%
17 | COc1ccc(/C=C/c2nc3ccccc3n2Cc2ccccc2OC)cc1 | inactive: 0%
18 | CC1(C)CC(=O)C(C=NCc2ccc3c(c2)OCO3)=C(O)C1 | inconclusive: -61.7%
19 | COc1ccc(OC)c(C2C=C(C34CC5CC(CC(C5)C3)C4)NC(=S)N2)c1 (configuration not stated) | inconclusive: -73%
20 | CC1Cc2ccccc2N1C(=S)Nc1ccc(S(N)(=O)=O)cc1 (configuration not stated) | inconclusive: -67.3%
21 | COC(=O)/C(C(C)=O)=C(\C=C\N(C)C)N(C)C | inconclusive: -53.9%
22 | Cc1ccc(S(=O)(=O)N2CCC(C(=O)Nc3nnc(-c4ccc(F)cc4)s3)CC2)cc1 | inactive: 55%
23 | O=C(Cc1ccc(F)cc1)N/N=C/c1ccccn1 | active: -113%

Row | Compound | activity change (PNC), negative = inhibition
24 | COc1ccc(N(CC(=O)N2c3ccccc3CC2C)S(=O)(=O)c2c(C)noc2C)cc1 (configuration not stated) | inconclusive: -61.3%
25 | CCOC(=O)c1c(NC(=O)Nc2ccccc2)sc(C)c1C | inconclusive: -45.4%
26 | O=C(NCCc1ccccc1)c1cc(-c2ccc3c(c2)OCO3)on1 | inconclusive: -54.4%
27 | O=c1c2c(nc3c(-c4cccc5ccccc45)c[nH]n13)CCC2 | inactive: 33.3%
28 | O=C(Nc1ccccc1Cl)c1cc(S(=O)(=O)N2CCCC(C(=O)O)C2)ccc1F (configuration not stated) | inconclusive: -35.1%
29 | Cn1nnc(NC(=O)c2ccco2)n1 | inactive: 24.2%
30 | C=CCn1c(=O)/c(=C2/SC(C)=C(C)N2CC)s/c1=C1/C(=O)N(CC)C(=S)N1c1ccccc1 | inconclusive: -33.4%
31 | N#CC1=C(N)OC2=C(CCC/C2=C/c2ccoc2)C1c1ccoc1 (configuration not stated) | inconclusive: -47.2%
32 | CCCCNC(=O)c1sc(=S)n(-c2ccccc2OC)c1N | inconclusive: -46.8%
33 | Cc1cc2c(c(SCC(=O)NCCc3ccccc3)n1)C(=O)OC2 | inconclusive: -46.8%
34 | CCC1C(=O)CC(c2ccco2)NC1c1ccco1 (configuration not stated) | active: -100%
35 | CCOC(=O)c1sc(NC(=O)COC(=O)CNC(=O)C2CCCCC2)c(C(=O)OCC)c1C | inactive: -19.9%
36 | Cc1ccc(C)c(NC(=O)COc2cccc3c2CCN(Cc2ccccc2C)C3=O)c1 | inactive: -21.5%
37 | Cc1ccc(O)c(C2=NOC(O)(C(F)(F)F)C2)c1 (configuration not stated) | inactive: 19.9%
38 | O=C(c1cccc(S(=O)(=O)Nc2cccc(C(F)(F)F)c2)c1)N1CCCCC1 | inactive: 12.4%
39 | COc1ccc(CCNC(=O)CN2CCN(c3ccccc3Cl)CC2)cc1 | inconclusive: -56.3%
40 | CCCCN1C(=O)c2ccc(C(=O)Nc3cccnc3)cc2C1=O | inconclusive: -32.3%
41 | Cc1c(NC(=O)Cn2ccc([N+](=O)[O-])n2)c(=O)n(-c2ccccc2)n1C | inactive: 77.8%
42 | Cc1ccc2nc3ccc(N4CCCCCCC4)nn3c(=O)c2c1 | inconclusive: -69.5%
43 | CS(=O)(=O)N(Cc1ccc(C(=O)NN=C2CCCCCC2)cc1)c1ccccc1 | inactive: 8.75%
44 | NNC(=O)c1cn2ccccc2n1 | inconclusive: -42.2%
45 | CC(C(=O)N=c1sc2ccccc2n1C)N1C(=O)C2CC=CCC2C1=O (configuration not stated) | inconclusive: -69.3%
46 | CCCCn1c(=O)c(-c2ccccc2)c(O)c2ccccc21 | inactive: -1.93%

Row | Compound | activity change (PNC), negative = inhibition
47 | CCOc1ccccc1-n1c(N)c(C(N)=O)sc1=S | inactive: -11.2%
48 | CCOC(=O)N1CCN(C(=O)c2cnsn2)CC1 | inconclusive: -53.2%
49 | CCOC(=O)CN(C(=O)CSc1nnc(CNc2ccc(F)cc2)n1CC)c1ccc(F)cc1 | inactive: -8.65%
50 | Cc1ccc(Oc2ccc(-c3nc(N)nc(N)n3)cc2)cc1 | inconclusive: -67.5%
51 | Cc1cc(N2CCC(C)CC2)nc(SCC(=O)c2ccccc2)n1 | active: -119%
52 | Cc1cc(N2C(=O)C(=O)/C(=C(/O)c3ccccc3)C2c2cccs2)no1 (configuration not stated) | inconclusive: -63.6%
53 | COc1ccccc1-c1n[nH]c(=S)n1-c1ccccc1 | inconclusive: -40.1%
54 | Cc1nnc(N2CCCCC2)c2ccccc12 | inconclusive: -67.9%
55 | CC/C(=C\C(=O)c1cccnc1)Nc1ccc(C)c(C)c1 | inconclusive: -55.2%
56 | Cc1cc(C)cc(-n2c(SC(C)C(=O)NCc3ccc4c(c3)OCO4)nc3ccccc3c2=O)c1 (configuration not stated) | inactive: -10.2%
57 | CC(=O)Nc1cccc(NC(=O)C2CCCN2C(=O)Nc2ccc(C)cc2)c1 (configuration not stated) | inconclusive: -44.6%
58 | CC1Cc2nc(SCC(=O)NC3CCCCC3)n(C)c(=O)c2S1 (configuration not stated) | inactive: -28.4%
59 | COc1c2occc2c(OC)c2c(=O)cc(C(F)(F)C(F)(F)F)oc12 | inactive: 18.4%
60 | CCOP(=O)(OCC)/C(=N/OC(=O)c1ccccc1C)C(N)=O | inconclusive: -39.5%
61 | CSc1ccccc1NC(=S)Nc1ccccc1C(F)(F)F | inactive: -3.99%
62 | CCN(CC)c1ccc(/C=N/Nc2ccc(C)cc2)c(O)c1 | inactive: -12.1%
63 | COCc1cc(C)nc(N2CCN(Cc3ccccc3)CC2)c1C#N | inconclusive: -41.5%
64 | O=C(Cc1cccs1)Nc1ccon1 | inconclusive: -34.2%
65 | CCN1C(=O)/C(=C\c2cccs2)C(C(=O)OC)=C1C | inactive: 10.1%
66 | O=C(NCC1(c2ccccc2)CCCC1)C1(c2ccccc2)CCCC1 | inconclusive: -35.6%
67 | O=C(/C=C/c1ccccc1)NCCSCc1ccccc1Cl | active: -91.1%
68 | COc1cc(NC2c3ncccc3C(=O)N2Cc2ccco2)cc(OC)c1 (configuration not stated) | inactive: -21.6%
69 | Cn1c(NCc2ccco2)nc2c1c(=O)n(Cc1ccc(Br)cc1)c(=O)n2C | inconclusive: -44.4%

Row | Compound | activity change (PNC), negative = inhibition
70 | c1ccc(-c2nnc(-c3c[nH]c4ccccc34)nc2-c2ccccc2)cc1 | inconclusive: -51.5%
71 | Nc1ccc(-n2nnnc2-c2ccco2)cc1 | inconclusive: -33.7%
72 | O=C(c1cc2ccccc2oc1=O)N(Cc1ccccc1)C1CCS(=O)(=O)C1 (configuration not stated) | inconclusive: -34.1%
73 | O=C(c1cn(-c2ccccc2)nc1-c1ccncc1)N1CCCCC1 | inactive: 40.3%
74 | Cc1n[nH]c(C)c1N1C(=O)c2cccc3c(N4CCCCCC4)ccc(c23)C1=O | inconclusive: -30.7%
75 | Cc1cccc(C)c1-n1c(C)cc(/C=N/NC(=O)c2ccncc2)c1C | inconclusive: -43.3%
76 | Cn1c(SCC(=O)N2CCOCC2)nc(O)cc1=O | inactive: -10.6%
77 | Cn1c(SCC(=O)Nc2ccc3c(c2)oc2ccccc23)nnc1-c1ccccc1 | inactive: 4.97%
78 | CCN1C(=O)CC(C(=O)Nc2ccc(F)cc2)SC1=Nc1ccc2c(c1)OCO2 (configuration not stated) | inconclusive: -67.9%
79 | CCOc1ccccc1/C=C(/NC(=O)c1ccccc1)C(=O)NC(C)c1ccccc1 (configuration not stated) | inconclusive: -44.6%
80 | CC(C)NC(=O)C(=O)NCCc1ccc(Cl)cc1 | inconclusive: -33.5%
81 | COc1ccc(/C(O)=C2\C(=O)C(=O)N(CCN3CCOCC3)C2c2ccccc2OC)cc1 (configuration not stated) | inconclusive: -59.4%
82 | CCOC(=O)C1CCN(C(=O)CSC2=NCCS2)CC1 | inactive: -27.6%
83 | CCOC(=O)c1c(NC(NC(=O)C(C)C)C(Cl)(Cl)Cl)sc2c1CCC2 (configuration not stated) | inconclusive: -41.1%
84 | C=CCn1c(Cc2c(C)[nH]c3ccccc23)nnc1SCC(=O)NCc1ccc(F)cc1 | inconclusive: -36.4%
85 | O=C(C1CCN(CCCc2ccccc2)CC1)N1CCCCC1 | inactive: 62.8%
86 | COc1ccc(CCNC(=O)CN2CCC(C(N)=O)CC2)cc1 | inconclusive: -62.1%
87 | Cc1nc2sccn2c(=O)c1Br | inactive: 10.2%
88 | c1ccc2nc(-c3nc4ccccc4o3)ccc2c1 | active: -107%
89 | Cc1cc(C(=O)Nc2ccon2)cs1 | inconclusive: -41.5%
90 | COc1ccc(NS(=O)(=O)c2ccc(OC)c(NC(=O)CCC3CCCCC3)c2)cc1 | inconclusive: -40.2%
91 | COC(=O)C1CCN(S(C)(=O)=O)CC1 | active: -100%
92 | COc1cc(C(=S)N2CCOCC2)ccc1OC(=O)c1cc([N+](=O)[O-])c(C)c([N+](=O)[O-])c1 | inconclusive: -31.9%

Two of the compounds above, as labelled records.
Cn1c(SCC(=O)N2CCOCC2)nc(O)cc1=O
  activity change (PNC), negative = inhibition: inactive: -10.6%
Cn1c(SCC(=O)Nc2ccc3c(c2)oc2ccccc23)nnc1-c1ccccc1
  activity change (PNC), negative = inhibition: inactive: 4.97%

Single entries from the entries so far:
Entry for COc1ccc(NS(=O)(=O)c2ccc(OC)c(NC(=O)CCC3CCCCC3)c2)cc1 under activity change (PNC), negative = inhibition: inconclusive: -40.2%
Entry for CCOC(=O)c1c(NC(NC(=O)C(C)C)C(Cl)(Cl)Cl)sc2c1CCC2 (configuration not stated) under activity change (PNC), negative = inhibition: inconclusive: -41.1%
Entry for c1ccc2nc(-c3nc4ccccc4o3)ccc2c1 under activity change (PNC), negative = inhibition: active: -107%
Entry for O=C(c1cc2ccccc2oc1=O)N(Cc1ccccc1)C1CCS(=O)(=O)C1 (configuration not stated) under activity change (PNC), negative = inhibition: inconclusive: -34.1%
Entry for COC(=O)C1CCN(S(C)(=O)=O)CC1 under activity change (PNC), negative = inhibition: active: -100%
